Measured values taken from the supplement of paper PMC4604168 (melanoma cell lines).
This is one part of the list. Single values are uncertain, as repeats are few or missing.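 Cells were imaged in 1,536-well plates, and nuclei stained with an antibody against cleaved PARP were counted against all DNA-stained nuclei to give the apoptosis fraction. Screening doses were chosen to leave most cells alive, and resting and induced cleaved-PARP levels differ strongly between cell lines.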

Columns and labels:
Experiment in all cases: cleaved PARP positive nuclei fraction relative to DMSO control; melanoma cells; higher = more apoptosis
Details in all cases: library dose: low library concentration; 72 h
501Mel = system: 501Mel
A101D = system: A101D
A2058 = system: A2058
C32 = system: C32
CBRC008 = system: CBRC008 (line from a melanoma biopsy)
CBRC014 = system: CBRC014 (line from a melanoma biopsy)
CBRC016 = system: CBRC016 (line from a melanoma biopsy)
CBRC017 = system: CBRC017 (line from a melanoma biopsy)

Compound	cleaved PARP positive nuclei fraction (501Mel) [%]	cleaved PARP positive nuclei fraction (A101D) [%]	cleaved PARP positive nuclei fraction (A2058) [%]	cleaved PARP positive nuclei fraction (C32) [%]	cleaved PARP positive nuclei fraction (CBRC008) [%]	cleaved PARP positive nuclei fraction (CBRC014) [%]	cleaved PARP positive nuclei fraction (CBRC016) [%]	cleaved PARP positive nuclei fraction (CBRC017) [%]
CC(C)C[C@H](NC(=O)[C@H](Cc1ccccc1)NC(=O)c1cnccn1)B(O)O [Bortezomib] + C/C(O)=C(\C#N)C(=O)Nc1cc(Br)ccc1Br [LFM-A13] (first compound 0.001 µM, partner dose 2 µM)	275	60.2	113	60.3	607	181	169	169
CC[C@]1(O)C[C@H]2CN(CCc3c([nH]c4ccccc34)[C@@](C(=O)OC)(c3cc4c(cc3OC)N(C=O)[C@H]3[C@@](O)(C(=O)OC)[C@H](OC(C)=O)[C@]5(CC)C=CCN6CC[C@]43[C@@H]65)C2)C1 [vincristine] + C/C(O)=C(\C#N)C(=O)Nc1cc(Br)ccc1Br [LFM-A13] (first compound 0.0001 µM, partner dose 2 µM)	76.8	54.8	577	203	416	104	114	114
C=CCNC1=C2C[C@@H](C)C[C@H](OC)[C@H](O)[C@@H](C)/C=C(\C)[C@H](OC(N)=O)[C@@H](OC)/C=C\C=C(/C)C(=O)NC(=CC1=O)C2=O [Tanespimycin] + Cc1cc(SCc2sc(-c3ccc(C(F)(F)F)c(F)c3)nc2C)ccc1OCC(=O)O [GW0742] (first compound 0.002 µM, partner dose 2 µM)	83.1	35.8	58.1	40.8	30.5	92.5	95.1	426
NC1(c2ccc(-c3nc4ccn5c(=O)[nH]nc5c4cc3-c3ccccc3)cc2)CCC1 + Cc1cc(SCc2sc(-c3ccc(C(F)(F)F)c(F)c3)nc2C)ccc1OCC(=O)O [GW0742] (first compound 0.4 µM, partner dose 2 µM)	216	52.8	63.4	64.3	54.2	81.7	206	75.6
N.N.[Cl][Pt][Cl] [cisplatin] + N#Cc1c(O)c2c(-c3ccc(-c4ccccc4O)cc3)csc2[nH]c1=O [A769662] (first compound 1.6 µM, partner dose 2 µM)	110	18.8	35	58.6	47.7	132	69.6	81.5
N#CC[C@H](C1CCCC1)n1cc(-c2ncnc3[nH]ccc23)cn1 [ruxolitinib] + Cc1cc(SCc2sc(-c3ccc(C(F)(F)F)c(F)c3)nc2C)ccc1OCC(=O)O [GW0742] (first compound 1 µM, partner dose 2 µM)	65.1	31.4	26.6	75.9	107	90.8	177	457
Clc1ccc(Nc2nnc(Cc3ccncc3)c3ccccc23)cc1 [vatalanib] + O=C(Oc1ccc([N+](=O)[O-])cc1)N1CCC(C(O)(c2ccc3c(c2)OCO3)c2ccc3c(c2)OCO3)CC1 [JZL184] (first compound 2 µM, partner dose 1 µM)	53.1	107	128	91.1	164	110	138	115
COc1ccc(C2=N[C@@H](c3ccc(Cl)cc3)[C@@H](c3ccc(Cl)cc3)N2C(=O)N2CCNC(=O)C2)c(OC(C)C)c1 [Nutlin-3] + Cc1cc(SCc2sc(-c3ccc(C(F)(F)F)c(F)c3)nc2C)ccc1OCC(=O)O [GW0742] (first compound 0.1 µM, partner dose 2 µM)	66.8	33.7	32.7	41.2	324	94	124	114
Nc1nc(F)nc2c1ncn2[C@@H]1O[C@H](CO)[C@@H](O)[C@@H]1O [fludarabine] + Cc1cc(SCc2sc(-c3ccc(C(F)(F)F)c(F)c3)nc2C)ccc1OCC(=O)O [GW0742] (first compound 0.2 µM, partner dose 2 µM)	1150	29.7	16.9	50.9	57.9	96	107	143
COc1cc([C@@H]2c3cc4c(cc3[C@@H](O[C@@H]3O[C@@H]5CO[C@@H](C)O[C@H]5[C@H](O)[C@H]3O)[C@H]3COC(=O)[C@H]23)OCO4)cc(OC)c1O [etoposide] + Cc1cc(SCc2sc(-c3ccc(C(F)(F)F)c(F)c3)nc2C)ccc1OCC(=O)O [GW0742] (first compound 0.02 µM, partner dose 2 µM)	56.3	8.13	96.9	35.5	50.2	77.1	81	176
O=C(O)[C@@H]1[O][Sb](=[O])([O][Sb]2(=[O])[O][C@H]([C@H](O)CO)[C@H](O)[C@H](C(=O)O)[O]2)[O][C@H]([C@H](O)CO)[C@@H]1O (some centres undefined) [stibogluconate] + Cc1cc(SCc2sc(-c3ccc(C(F)(F)F)c(F)c3)nc2C)ccc1OCC(=O)O [GW0742] (first compound 2 µM, partner dose 2 µM)	83.7	20.5	44.7	79.3	156	87.6	92.7	69.5
O=c1[nH]nc(Sc2ncc([N+](=O)[O-])s2)n1-c1ccc2c(c1)OCCO2 + O=C(Oc1ccc([N+](=O)[O-])cc1)N1CCC(C(O)(c2ccc3c(c2)OCO3)c2ccc3c(c2)OCO3)CC1 [JZL184] (first compound 0.2 µM, partner dose 1 µM)	75.9	29.8	105	156	92.4	114	48.6	145
Cn1cc(C2=C(c3cn(C4CCN(Cc5ccccn5)CC4)c4ccccc34)C(=O)NC2=O)c2ccccc21 [Enzastaurin] + O=c1cc(-c2cccc3c2Sc2ccccc2S3)oc(N2CCOCC2)c1 [KU55933] (first compound 0.8 µM, partner dose 1 µM)	145	36.5	148	78.5	157	120	81.3	317
O=c1[nH]nc(Sc2ncc([N+](=O)[O-])s2)n1-c1ccc2c(c1)OCCO2 + Cc1cc(SCc2sc(-c3ccc(C(F)(F)F)c(F)c3)nc2C)ccc1OCC(=O)O [GW0742] (first compound 0.2 µM, partner dose 2 µM)	75.4	20.8	99	39.2	62.5	88.4	49.1	79.7
C[C@]12O[C@H](C[C@]1(O)CO)n1c3ccccc3c3c4c(c5c6ccccc6n2c5c31)CNC4=O [Lestaurtinib] + Cc1cc([N+](=O)[O-])ccc1NS(=O)(=O)c1cc(Cl)ccc1Cl [FH535] (first compound 0.004 µM, partner dose 1 µM)	63.2	63.4	190	283	2180	183	3050	322
C[C@@H](Oc1cc(-c2cnn(C3CCNCC3)c2)cnc1N)c1c(Cl)ccc(F)c1Cl [Crizotinib] + Cc1cc(SCc2sc(-c3ccc(C(F)(F)F)c(F)c3)nc2C)ccc1OCC(=O)O [GW0742] (first compound 0.2 µM, partner dose 2 µM)	91.1	22.4	115	132	107	125	67.5	83.4
Nc1ccn([C@@H]2O[C@H](CO)[C@@H](O)C2(F)F)c(=O)n1 [gemcitabine] + O=C(Oc1ccc([N+](=O)[O-])cc1)N1CCC(C(O)(c2ccc3c(c2)OCO3)c2ccc3c(c2)OCO3)CC1 [JZL184] (first compound 0.0004 µM, partner dose 1 µM)	78.7	19.7	63.3	70.4	91.4	141	107	120
COc1cc([C@@H]2c3cc4c(cc3[C@@H](O[C@@H]3O[C@@H]5CO[C@@H](C)O[C@H]5[C@H](O)[C@H]3O)[C@H]3COC(=O)[C@H]23)OCO4)cc(OC)c1O [etoposide] + O=C(Oc1ccc([N+](=O)[O-])cc1)N1CCC(C(O)(c2ccc3c(c2)OCO3)c2ccc3c(c2)OCO3)CC1 [JZL184] (first compound 0.02 µM, partner dose 1 µM)	69.1	20.2	104	66.1	241	99.6	44.8	162
C[C@]12O[C@H](C[C@]1(O)CO)n1c3ccccc3c3c4c(c5c6ccccc6n2c5c31)CNC4=O [Lestaurtinib] + N#Cc1c(O)c2c(-c3ccc(-c4ccccc4O)cc3)csc2[nH]c1=O [A769662] (first compound 0.004 µM, partner dose 2 µM)	88.2	45.6	31.2	144	123	64.7	58.6	68.3
Cn1cc(C2=C(c3cn(C4CCN(Cc5ccccn5)CC4)c4ccccc34)C(=O)NC2=O)c2ccccc21 [Enzastaurin] + COc1ccc(COc2ccc(Cc3cnc(N)nc3N)cc2OC)cc1 [GW2580] (first compound 0.8 µM, partner dose 1 µM)	68.4	15.4	46.7	99.5	109	102	70.6	115
Cn1cnc2c(F)c(Nc3ccc(Br)cc3Cl)c(C(=O)NOCCO)cc21 [selumetinib] + Cc1cc(SCc2sc(-c3ccc(C(F)(F)F)c(F)c3)nc2C)ccc1OCC(=O)O [GW0742] (first compound 0.015 µM, partner dose 2 µM)	72	14.8	87.9	86.5	43.1	78.8	152	116
C[C@]12O[C@H](C[C@]1(O)CO)n1c3ccccc3c3c4c(c5c6ccccc6n2c5c31)CNC4=O [Lestaurtinib] + CC(C)CCN1c2nc(Nc3cc(F)c(O)c(F)c3)ncc2N(C)C(=O)C1C [BID1870] (first compound 0.004 µM, partner dose 0.2 µM)	77.9	34.2	117	123	156	90.9	64.6	67.9
C=C(c1ccc(C(=O)O)cc1)c1cc2c(cc1C)C(C)(C)CCC2(C)C [Bexarotene] + Cc1cc(SCc2sc(-c3ccc(C(F)(F)F)c(F)c3)nc2C)ccc1OCC(=O)O [GW0742] (first compound 2 µM, partner dose 2 µM)	144	16.4	104	69.8	185	111	258	145

Five successive entries from above:
Compound	cleaved PARP positive nuclei fraction (501Mel) [%]	cleaved PARP positive nuclei fraction (A101D) [%]	cleaved PARP positive nuclei fraction (A2058) [%]	cleaved PARP positive nuclei fraction (C32) [%]	cleaved PARP positive nuclei fraction (CBRC008) [%]	cleaved PARP positive nuclei fraction (CBRC014) [%]	cleaved PARP positive nuclei fraction (CBRC016) [%]	cleaved PARP positive nuclei fraction (CBRC017) [%]
N#CC[C@H](C1CCCC1)n1cc(-c2ncnc3[nH]ccc23)cn1 [ruxolitinib] + Cc1cc(SCc2sc(-c3ccc(C(F)(F)F)c(F)c3)nc2C)ccc1OCC(=O)O [GW0742] (first compound 1 µM, partner dose 2 µM)	65.1	31.4	26.6	75.9	107	90.8	177	457
Clc1ccc(Nc2nnc(Cc3ccncc3)c3ccccc23)cc1 [vatalanib] + O=C(Oc1ccc([N+](=O)[O-])cc1)N1CCC(C(O)(c2ccc3c(c2)OCO3)c2ccc3c(c2)OCO3)CC1 [JZL184] (first compound 2 µM, partner dose 1 µM)	53.1	107	128	91.1	164	110	138	115
COc1ccc(C2=N[C@@H](c3ccc(Cl)cc3)[C@@H](c3ccc(Cl)cc3)N2C(=O)N2CCNC(=O)C2)c(OC(C)C)c1 [Nutlin-3] + Cc1cc(SCc2sc(-c3ccc(C(F)(F)F)c(F)c3)nc2C)ccc1OCC(=O)O [GW0742] (first compound 0.1 µM, partner dose 2 µM)	66.8	33.7	32.7	41.2	324	94	124	114
Nc1nc(F)nc2c1ncn2[C@@H]1O[C@H](CO)[C@@H](O)[C@@H]1O [fludarabine] + Cc1cc(SCc2sc(-c3ccc(C(F)(F)F)c(F)c3)nc2C)ccc1OCC(=O)O [GW0742] (first compound 0.2 µM, partner dose 2 µM)	1150	29.7	16.9	50.9	57.9	96	107	143
COc1cc([C@@H]2c3cc4c(cc3[C@@H](O[C@@H]3O[C@@H]5CO[C@@H](C)O[C@H]5[C@H](O)[C@H]3O)[C@H]3COC(=O)[C@H]23)OCO4)cc(OC)c1O [etoposide] + Cc1cc(SCc2sc(-c3ccc(C(F)(F)F)c(F)c3)nc2C)ccc1OCC(=O)O [GW0742] (first compound 0.02 µM, partner dose 2 µM)	56.3	8.13	96.9	35.5	50.2	77.1	81	176
